# Laboratory results: the supplement of paper PMC12067093, “Discovery and optimisation of a covalent ligand for TRIM25 and its application to targeted protein ubiquitination” (Chemical Science, 2025)
# By UniProt entry, the sequences of proteins in these tests, tags left out. Where a name states a change or a piece, a line headed by the entry shows the natural chain unless it says otherwise.
# UniProt Q8TB45, whole entry: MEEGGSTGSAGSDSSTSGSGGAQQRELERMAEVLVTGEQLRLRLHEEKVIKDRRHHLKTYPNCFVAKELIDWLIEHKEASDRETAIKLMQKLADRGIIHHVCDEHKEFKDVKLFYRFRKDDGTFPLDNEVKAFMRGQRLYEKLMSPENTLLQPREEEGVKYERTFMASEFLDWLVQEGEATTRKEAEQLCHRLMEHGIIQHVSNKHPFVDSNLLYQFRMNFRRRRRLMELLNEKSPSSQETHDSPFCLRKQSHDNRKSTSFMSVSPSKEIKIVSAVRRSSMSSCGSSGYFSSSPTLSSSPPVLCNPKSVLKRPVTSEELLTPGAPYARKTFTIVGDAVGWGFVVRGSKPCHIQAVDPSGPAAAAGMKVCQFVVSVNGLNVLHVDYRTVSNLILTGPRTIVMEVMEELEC
# UniProt Q9NR30: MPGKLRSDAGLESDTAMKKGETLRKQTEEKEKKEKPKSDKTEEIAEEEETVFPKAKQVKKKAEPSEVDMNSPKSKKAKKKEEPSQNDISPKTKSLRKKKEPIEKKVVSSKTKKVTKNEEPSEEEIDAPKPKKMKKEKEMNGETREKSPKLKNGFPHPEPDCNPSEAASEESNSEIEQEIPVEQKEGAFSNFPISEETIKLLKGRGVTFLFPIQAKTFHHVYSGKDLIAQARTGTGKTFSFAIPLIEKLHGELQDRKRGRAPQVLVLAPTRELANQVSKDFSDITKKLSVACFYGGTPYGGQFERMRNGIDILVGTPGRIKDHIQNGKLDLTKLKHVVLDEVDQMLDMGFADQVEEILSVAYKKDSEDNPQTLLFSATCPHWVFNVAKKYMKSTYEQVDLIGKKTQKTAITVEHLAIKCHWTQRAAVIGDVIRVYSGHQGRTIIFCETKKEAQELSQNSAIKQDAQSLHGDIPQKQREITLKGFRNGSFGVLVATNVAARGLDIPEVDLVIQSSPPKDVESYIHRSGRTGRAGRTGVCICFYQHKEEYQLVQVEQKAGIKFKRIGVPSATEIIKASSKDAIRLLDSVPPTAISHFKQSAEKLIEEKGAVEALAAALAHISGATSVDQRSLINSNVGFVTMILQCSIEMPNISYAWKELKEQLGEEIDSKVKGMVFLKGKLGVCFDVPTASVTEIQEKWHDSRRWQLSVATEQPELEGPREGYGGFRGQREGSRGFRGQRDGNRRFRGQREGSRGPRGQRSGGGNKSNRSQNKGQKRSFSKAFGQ
# UniProt Q8WYQ5: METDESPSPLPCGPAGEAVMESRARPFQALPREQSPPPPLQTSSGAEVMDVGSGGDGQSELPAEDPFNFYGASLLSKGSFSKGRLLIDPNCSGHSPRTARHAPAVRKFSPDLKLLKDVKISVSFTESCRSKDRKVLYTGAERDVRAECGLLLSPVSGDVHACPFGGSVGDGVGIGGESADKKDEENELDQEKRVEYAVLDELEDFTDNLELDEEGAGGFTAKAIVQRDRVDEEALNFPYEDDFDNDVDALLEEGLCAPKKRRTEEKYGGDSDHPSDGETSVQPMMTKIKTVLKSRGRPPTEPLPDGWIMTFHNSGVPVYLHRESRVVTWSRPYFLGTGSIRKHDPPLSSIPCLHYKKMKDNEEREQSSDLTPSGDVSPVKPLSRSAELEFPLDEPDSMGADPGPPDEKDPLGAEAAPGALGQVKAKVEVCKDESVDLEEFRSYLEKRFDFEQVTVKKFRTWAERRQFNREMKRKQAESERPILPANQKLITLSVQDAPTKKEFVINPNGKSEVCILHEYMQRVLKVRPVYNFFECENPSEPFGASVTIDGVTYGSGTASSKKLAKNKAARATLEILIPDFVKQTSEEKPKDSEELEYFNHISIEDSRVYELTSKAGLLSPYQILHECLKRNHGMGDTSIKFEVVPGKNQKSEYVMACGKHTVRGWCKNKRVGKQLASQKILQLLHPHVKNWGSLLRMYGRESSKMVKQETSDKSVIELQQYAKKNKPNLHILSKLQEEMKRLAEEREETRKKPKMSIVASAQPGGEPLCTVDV
# UniProt Q16698: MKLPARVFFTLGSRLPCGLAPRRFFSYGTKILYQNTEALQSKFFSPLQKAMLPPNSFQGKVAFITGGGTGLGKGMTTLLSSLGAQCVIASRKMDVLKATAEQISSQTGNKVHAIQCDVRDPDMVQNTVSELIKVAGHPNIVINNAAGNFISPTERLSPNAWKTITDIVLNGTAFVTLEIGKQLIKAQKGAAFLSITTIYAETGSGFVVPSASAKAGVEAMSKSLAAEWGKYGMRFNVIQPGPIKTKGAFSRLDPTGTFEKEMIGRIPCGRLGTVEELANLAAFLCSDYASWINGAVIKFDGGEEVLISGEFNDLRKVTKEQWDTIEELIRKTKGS
# UniProt Q9UHI6: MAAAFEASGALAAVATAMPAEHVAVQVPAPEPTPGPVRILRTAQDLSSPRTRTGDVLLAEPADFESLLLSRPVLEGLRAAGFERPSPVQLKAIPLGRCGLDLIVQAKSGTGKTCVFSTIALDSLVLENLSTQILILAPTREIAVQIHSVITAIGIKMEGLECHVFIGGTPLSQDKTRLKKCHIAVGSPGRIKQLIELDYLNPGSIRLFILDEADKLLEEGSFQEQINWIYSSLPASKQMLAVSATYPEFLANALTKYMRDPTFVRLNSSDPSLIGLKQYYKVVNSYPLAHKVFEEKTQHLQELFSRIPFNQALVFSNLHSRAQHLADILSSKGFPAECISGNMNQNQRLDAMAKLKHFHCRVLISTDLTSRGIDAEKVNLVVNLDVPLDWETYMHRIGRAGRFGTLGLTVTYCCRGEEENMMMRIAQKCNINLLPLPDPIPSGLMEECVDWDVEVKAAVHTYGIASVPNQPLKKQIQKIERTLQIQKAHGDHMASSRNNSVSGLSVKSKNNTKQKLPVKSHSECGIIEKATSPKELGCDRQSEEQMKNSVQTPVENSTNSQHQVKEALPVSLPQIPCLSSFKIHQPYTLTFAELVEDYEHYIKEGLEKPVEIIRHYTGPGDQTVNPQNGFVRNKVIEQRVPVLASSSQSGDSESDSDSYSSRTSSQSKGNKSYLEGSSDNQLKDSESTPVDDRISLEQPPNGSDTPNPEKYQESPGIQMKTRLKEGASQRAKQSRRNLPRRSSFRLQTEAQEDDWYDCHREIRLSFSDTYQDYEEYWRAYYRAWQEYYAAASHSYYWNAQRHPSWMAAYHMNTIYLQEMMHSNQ
# UniProt Q8TDD1, whole entry, looked up: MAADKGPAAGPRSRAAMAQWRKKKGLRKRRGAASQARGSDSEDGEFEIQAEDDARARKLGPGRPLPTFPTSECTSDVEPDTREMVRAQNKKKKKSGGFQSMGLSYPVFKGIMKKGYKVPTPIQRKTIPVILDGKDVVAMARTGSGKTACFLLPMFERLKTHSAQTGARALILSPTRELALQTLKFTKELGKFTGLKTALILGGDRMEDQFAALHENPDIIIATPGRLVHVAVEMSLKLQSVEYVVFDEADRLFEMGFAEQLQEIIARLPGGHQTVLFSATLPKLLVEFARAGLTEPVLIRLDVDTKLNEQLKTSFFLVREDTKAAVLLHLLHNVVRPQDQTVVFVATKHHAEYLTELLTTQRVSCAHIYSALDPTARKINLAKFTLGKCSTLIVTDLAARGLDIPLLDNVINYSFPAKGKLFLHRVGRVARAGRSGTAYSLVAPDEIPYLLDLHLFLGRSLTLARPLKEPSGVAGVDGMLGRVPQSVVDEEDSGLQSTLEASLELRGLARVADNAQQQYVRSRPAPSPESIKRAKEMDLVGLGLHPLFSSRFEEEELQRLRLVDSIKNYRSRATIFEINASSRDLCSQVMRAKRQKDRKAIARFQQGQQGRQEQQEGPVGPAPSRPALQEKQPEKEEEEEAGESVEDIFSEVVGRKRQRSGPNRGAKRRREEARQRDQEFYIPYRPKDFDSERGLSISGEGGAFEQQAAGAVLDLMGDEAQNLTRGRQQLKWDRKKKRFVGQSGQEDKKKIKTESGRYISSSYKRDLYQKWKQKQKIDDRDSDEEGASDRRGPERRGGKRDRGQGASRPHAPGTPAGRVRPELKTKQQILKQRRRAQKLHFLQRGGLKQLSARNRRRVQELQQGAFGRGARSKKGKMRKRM
# UniProt Q96QD5: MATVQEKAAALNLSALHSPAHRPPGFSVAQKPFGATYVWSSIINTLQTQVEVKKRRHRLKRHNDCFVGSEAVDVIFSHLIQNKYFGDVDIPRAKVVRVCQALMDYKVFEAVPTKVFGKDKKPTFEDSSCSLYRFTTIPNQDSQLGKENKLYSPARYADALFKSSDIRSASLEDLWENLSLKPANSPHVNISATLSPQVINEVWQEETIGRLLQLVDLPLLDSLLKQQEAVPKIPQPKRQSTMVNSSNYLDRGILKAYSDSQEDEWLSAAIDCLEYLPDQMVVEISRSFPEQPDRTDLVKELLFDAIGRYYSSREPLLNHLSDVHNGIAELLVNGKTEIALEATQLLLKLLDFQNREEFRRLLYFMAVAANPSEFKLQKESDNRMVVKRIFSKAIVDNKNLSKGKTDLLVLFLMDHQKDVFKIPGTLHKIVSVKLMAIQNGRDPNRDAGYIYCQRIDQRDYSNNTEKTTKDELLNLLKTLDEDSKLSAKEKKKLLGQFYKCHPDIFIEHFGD
# UniProt Q92499: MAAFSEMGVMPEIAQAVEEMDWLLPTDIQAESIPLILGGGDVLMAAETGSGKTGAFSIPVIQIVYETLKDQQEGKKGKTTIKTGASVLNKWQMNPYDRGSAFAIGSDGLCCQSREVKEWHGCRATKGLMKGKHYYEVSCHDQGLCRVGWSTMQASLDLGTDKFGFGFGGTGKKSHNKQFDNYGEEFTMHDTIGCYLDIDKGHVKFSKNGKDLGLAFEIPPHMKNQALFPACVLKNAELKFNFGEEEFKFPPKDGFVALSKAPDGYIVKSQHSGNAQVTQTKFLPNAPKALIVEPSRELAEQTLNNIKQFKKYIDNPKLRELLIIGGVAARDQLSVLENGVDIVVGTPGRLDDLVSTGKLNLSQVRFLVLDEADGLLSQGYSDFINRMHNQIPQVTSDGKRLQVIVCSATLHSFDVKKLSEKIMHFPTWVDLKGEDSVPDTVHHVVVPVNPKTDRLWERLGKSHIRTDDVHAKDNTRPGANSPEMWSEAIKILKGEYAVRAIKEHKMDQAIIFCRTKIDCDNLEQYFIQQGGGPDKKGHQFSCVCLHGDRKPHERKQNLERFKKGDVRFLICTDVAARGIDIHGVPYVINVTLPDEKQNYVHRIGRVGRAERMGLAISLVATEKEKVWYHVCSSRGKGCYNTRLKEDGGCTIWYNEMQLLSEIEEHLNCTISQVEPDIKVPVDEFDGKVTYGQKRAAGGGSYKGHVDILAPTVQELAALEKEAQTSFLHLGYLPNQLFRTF
# UniProt Q9Y2R4: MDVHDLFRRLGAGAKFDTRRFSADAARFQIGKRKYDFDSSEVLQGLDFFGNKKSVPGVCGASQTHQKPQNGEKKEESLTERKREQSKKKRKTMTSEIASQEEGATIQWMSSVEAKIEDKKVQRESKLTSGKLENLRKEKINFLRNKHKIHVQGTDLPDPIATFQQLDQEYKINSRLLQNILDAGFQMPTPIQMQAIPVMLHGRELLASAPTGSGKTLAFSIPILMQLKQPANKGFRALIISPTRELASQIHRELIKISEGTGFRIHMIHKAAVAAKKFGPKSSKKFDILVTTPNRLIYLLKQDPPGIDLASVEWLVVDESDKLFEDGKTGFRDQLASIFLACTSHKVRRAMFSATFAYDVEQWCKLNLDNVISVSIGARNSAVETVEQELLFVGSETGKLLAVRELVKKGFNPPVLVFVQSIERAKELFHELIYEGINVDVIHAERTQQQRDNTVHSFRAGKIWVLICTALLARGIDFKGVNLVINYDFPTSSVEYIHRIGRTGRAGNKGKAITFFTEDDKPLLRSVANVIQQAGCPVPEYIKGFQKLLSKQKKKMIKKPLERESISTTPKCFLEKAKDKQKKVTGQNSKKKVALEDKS
# UniProt Q92841: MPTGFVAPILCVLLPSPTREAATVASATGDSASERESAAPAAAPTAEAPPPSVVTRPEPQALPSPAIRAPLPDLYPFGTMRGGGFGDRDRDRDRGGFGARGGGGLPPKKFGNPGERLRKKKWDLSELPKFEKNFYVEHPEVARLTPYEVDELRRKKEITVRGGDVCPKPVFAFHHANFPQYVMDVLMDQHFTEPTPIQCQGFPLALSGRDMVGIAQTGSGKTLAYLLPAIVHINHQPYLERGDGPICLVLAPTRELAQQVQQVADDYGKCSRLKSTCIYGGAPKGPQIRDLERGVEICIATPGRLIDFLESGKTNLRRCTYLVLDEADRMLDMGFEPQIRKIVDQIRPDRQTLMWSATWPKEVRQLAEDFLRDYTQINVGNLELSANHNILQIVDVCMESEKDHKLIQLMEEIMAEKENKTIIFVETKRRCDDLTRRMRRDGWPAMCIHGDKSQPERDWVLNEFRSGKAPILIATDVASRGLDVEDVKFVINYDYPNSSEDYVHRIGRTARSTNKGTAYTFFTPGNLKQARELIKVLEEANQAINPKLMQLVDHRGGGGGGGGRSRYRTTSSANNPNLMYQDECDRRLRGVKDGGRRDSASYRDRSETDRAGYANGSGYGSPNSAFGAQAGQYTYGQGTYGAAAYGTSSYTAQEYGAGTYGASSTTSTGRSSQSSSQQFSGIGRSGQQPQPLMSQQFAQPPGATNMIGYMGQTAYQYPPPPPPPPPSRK
# This is one part of the list.
# Compound: CC1Cc2ccccc2N1C(=O)C1CCCN(C1)C(=O)CCl (mixture of isomers) [TRIM25 ligand 11 (diastereomer mixture)]
# Assay: probe-labelled cysteine peptide fold change vs DMSO (competition) (log2 fold change); higher = less target engagement (more negative = stronger competition)
# Conditions: 10 µM; THP-1; incubation time: 4 h
# 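Note: competitive chemoproteomic profiling in live THP-1 cells with an iodoacetamide desthiobiotin (IA-DTB) probe, comparing probe-labelled peptide intensities in compound-treated cells against DMSO-treated controls.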
row,Target,probe-labelled cysteine peptide fold change
1,DENND3_A2RUS2_919_LWCALSEGK (UniProt A2RUS2),0.243
2,DEPTOR_Q8TB45_102_GIIHHVCDEHK (UniProt Q8TB45),0.0822
3,DDX60L_Q5H9U9_1127_AGSVCTFLEK (UniProt Q5H9U9),-0.139
4,DENND3_A2RUS2_695_DFYNCWK (UniProt A2RUS2),-0.0755
5,DDX21_Q9NR30_291_LSVACFYGGTPYGGQFER (UniProt Q9NR30),-0.101
6,DEF6_Q9H4E7_246+253_WFQLQPSCLCYFGSEECK (UniProt Q9H4E7),0.0464
7,DGKE_P52429_167_TVHDECMK (UniProt P52429),-0.069
8,DGCR8_Q8WYQ5_91_LLIDPNCSGHSPR (UniProt Q8WYQ5),-0.00329
9,DDX21_Q9NR30_378_KDSEDNPQTLLFSATCPHWVFNVAK (UniProt Q9NR30),-0.013
10,DECR1_Q16698_86_GMTTLLSSLGAQCVIASR (UniProt Q16698),-0.0485
11,DDX20_Q9UHI6_98_CGLDLIVQAK (UniProt Q9UHI6),-0.014
12,DGCR8_Q8WYQ5_352_KHDPPLSSIPCLHYK (UniProt Q8WYQ5),0.00591
13,DGKH_Q86XP1_995_THLYIHHAIDLATEEVSQMQLCSQAAEELITR (UniProt Q86XP1),0.251
14,DDX54_Q8TDD1_389_CSTLIVTDLAAR (UniProt Q8TDD1),0.0254
15,DEPDC7_Q96QD5_65_HNDCFVGSEAVDVIFSHLIQNK (UniProt Q96QD5),0.0886
16,DDX5_P17844_200_STCIYGGAPK (UniProt P17844),-0.0684
17,DDX46_Q7L014_646_ASYPCMSLHGGIDQYDRDSIINDFK (UniProt Q7L014),-0.0109
18,DENND1C_Q8IV53_349_AQALLFGGYRDALVCSPGQPVTFSEEVFLAQKPGAPLQAFHR (UniProt Q8IV53),-0.288
19,DCUN1D1_Q96GG9_131_QEFMDGMTELGCDSIEK (UniProt Q96GG9),0.133
20,DDX59_Q5T1V6_208_QQLGILVQGQEVTRPIIDFEHCSLPEVLNHNLKK (UniProt Q5T1V6),-0.239

row,Target,probe-labelled cysteine peptide fold change
1,DDX1_Q92499_145_HYYEVSCHDQGLCR (UniProt Q92499),0.228
2,DDX6_P26196_361_KISQLGYSCFYIHAK (UniProt P26196),-0.0327
3,DDX5_P17844_89_GHNCPKPVLNFYEANFPANVMDVIAR (UniProt P17844),-0.235
4,DGCR8_Q8WYQ5_627_AGLLSPYQILHECLK (UniProt Q8WYQ5),0.126
5,DGKZ_Q13574_905_WCFLDATTASR (UniProt Q13574),0.042
6,DDX31_Q9H8H2_660_MEDILCVLTR (UniProt Q9H8H2),-0.0234
7,DEPDC1B_Q8WUY9_43_SYEHCFTAAEAVDWLHELLR (UniProt Q8WUY9),0.0671
8,DDX21_Q9NR30_445_TIIFCETKK (UniProt Q9NR30),-0.00375
9,DGKQ_P52824_638_LLNPHQVFDLTNGGPLPGLHLFSQVPCFR (UniProt P52824),-0.286
10,DDX27_Q96GQ7_248_ACIPVGLLGK (UniProt Q96GQ7),-0.0949
11,DDX1_Q92499_513_MDQAIIFCR (UniProt Q92499),0.0862
12,DENND4C_Q5VZ89_1086_ILTAALTCPK (UniProt Q5VZ89),-0.124
13,DDX52_Q9Y2R4_59_SVPGVCGASQTHQKPQNGEK (UniProt Q9Y2R4),-0.011
14,DEF6_Q9H4E7_279_CMFCVK (UniProt Q9H4E7),-0.0839
15,DGKG_P49619_490_VLACGGDGTVGWILDCIDK (UniProt P49619),0.148
16,DENND1A_Q8TEH3_338_IEPEEPITFCEEAFVSHYR (UniProt Q8TEH3),0.0159
17,DDX5_P17844_354_RCDELTR (UniProt P17844),-0.0479
18,DENND4B_O75064_815_VVLPDEVCYR (UniProt O75064),-0.103
19,DGKZ_Q13574_697_VVCDGMDLTPK (UniProt Q13574),0.0189
20,DDX17_Q92841_431_RCDDLTR (UniProt Q92841),-0.0927

# Same assay, conditions: 50 µM; THP-1; incubation time: 4 h
row,Target,probe-labelled cysteine peptide fold change
1,DENND3_A2RUS2_919_LWCALSEGK (UniProt A2RUS2),0.0981
2,DEPTOR_Q8TB45_102_GIIHHVCDEHK (UniProt Q8TB45),-0.181
3,DDX60L_Q5H9U9_1127_AGSVCTFLEK (UniProt Q5H9U9),-0.0265
4,DENND3_A2RUS2_695_DFYNCWK (UniProt A2RUS2),-0.0306
5,DDX21_Q9NR30_291_LSVACFYGGTPYGGQFER (UniProt Q9NR30),0.0957
6,DEF6_Q9H4E7_246+253_WFQLQPSCLCYFGSEECK (UniProt Q9H4E7),0.143
7,DGKE_P52429_167_TVHDECMK (UniProt P52429),-0.158
8,DGCR8_Q8WYQ5_91_LLIDPNCSGHSPR (UniProt Q8WYQ5),0.0865
9,DDX21_Q9NR30_378_KDSEDNPQTLLFSATCPHWVFNVAK (UniProt Q9NR30),-0.0568
10,DECR1_Q16698_86_GMTTLLSSLGAQCVIASR (UniProt Q16698),0.022
11,DDX20_Q9UHI6_98_CGLDLIVQAK (UniProt Q9UHI6),-0.0217
12,DGCR8_Q8WYQ5_352_KHDPPLSSIPCLHYK (UniProt Q8WYQ5),-0.0993
13,DGKH_Q86XP1_995_THLYIHHAIDLATEEVSQMQLCSQAAEELITR (UniProt Q86XP1),0.126
14,DDX54_Q8TDD1_389_CSTLIVTDLAAR (UniProt Q8TDD1),0.159
15,DEPDC7_Q96QD5_65_HNDCFVGSEAVDVIFSHLIQNK (UniProt Q96QD5),0.0289
16,DDX5_P17844_200_STCIYGGAPK (UniProt P17844),-0.21
17,DDX46_Q7L014_646_ASYPCMSLHGGIDQYDRDSIINDFK (UniProt Q7L014),-0.193
18,DENND1C_Q8IV53_349_AQALLFGGYRDALVCSPGQPVTFSEEVFLAQKPGAPLQAFHR (UniProt Q8IV53),-0.324
19,DCUN1D1_Q96GG9_131_QEFMDGMTELGCDSIEK (UniProt Q96GG9),0.121
20,DDX59_Q5T1V6_208_QQLGILVQGQEVTRPIIDFEHCSLPEVLNHNLKK (UniProt Q5T1V6),-0.182

row,Target,probe-labelled cysteine peptide fold change
1,DDX1_Q92499_145_HYYEVSCHDQGLCR (UniProt Q92499),-0.108
2,DDX6_P26196_361_KISQLGYSCFYIHAK (UniProt P26196),0.083
3,DDX5_P17844_89_GHNCPKPVLNFYEANFPANVMDVIAR (UniProt P17844),-0.239
4,DGCR8_Q8WYQ5_627_AGLLSPYQILHECLK (UniProt Q8WYQ5),0.357
5,DGKZ_Q13574_905_WCFLDATTASR (UniProt Q13574),0.0491
6,DDX31_Q9H8H2_660_MEDILCVLTR (UniProt Q9H8H2),-0.0546
7,DEPDC1B_Q8WUY9_43_SYEHCFTAAEAVDWLHELLR (UniProt Q8WUY9),-0.0514
8,DDX21_Q9NR30_445_TIIFCETKK (UniProt Q9NR30),0.102
9,DGKQ_P52824_638_LLNPHQVFDLTNGGPLPGLHLFSQVPCFR (UniProt P52824),-0.194
10,DDX27_Q96GQ7_248_ACIPVGLLGK (UniProt Q96GQ7),-0.114
11,DDX1_Q92499_513_MDQAIIFCR (UniProt Q92499),0.135
12,DENND4C_Q5VZ89_1086_ILTAALTCPK (UniProt Q5VZ89),-0.238
13,DDX52_Q9Y2R4_59_SVPGVCGASQTHQKPQNGEK (UniProt Q9Y2R4),-0.231
14,DEF6_Q9H4E7_279_CMFCVK (UniProt Q9H4E7),0.143
15,DGKG_P49619_490_VLACGGDGTVGWILDCIDK (UniProt P49619),0.225
16,DENND1A_Q8TEH3_338_IEPEEPITFCEEAFVSHYR (UniProt Q8TEH3),-0.115
17,DDX5_P17844_354_RCDELTR (UniProt P17844),0.192
18,DENND4B_O75064_815_VVLPDEVCYR (UniProt O75064),0.154
19,DGKZ_Q13574_697_VVCDGMDLTPK (UniProt Q13574),-0.127
20,DDX17_Q92841_431_RCDDLTR (UniProt Q92841),-0.0682
